Test results from publication PMC12431657, “Discovery and mechanistic insights of dibenzoylmethane as a broad spectrum inhibitor of coronavirus” (PLOS Pathogens, 2025).
Structures can show the parent of a compound that is named as a salt. Where two headings read alike, the source gives them in different places. Among all 3,300 compounds or so, about 95 (3%) showed an effect of 50% or more. This is one part of the list.

Tested on: HCoV-229E
Parameters: species or system Huh-7; HTS, protection from HCoV-229E induced cell death, luminescent cell viability (CellCounting-Lite 2.0), inhibition rate

SMILES | 229E Inhibition rate (24 h, 10 µM; inhibitor) | 229E Inhibition rate (24 h, 10 µM, inhibitor) [%]
C[C@]12CC[C@@H](O)C[C@H]1CC[C@@H]1[C@@H]2CC[C@]2(C)C(=O)CC[C@@H]12 [Etiocholanolone] | 13.1% | –
C[C@]12CC[C@H](O)C[C@H]1CC[C@@H]1[C@@H]2C(=O)[C@H](O)[C@]2(C)[C@@H](c3ccc(=O)oc3)CC[C@]12O [Pseudobufarenogin] | 45.8% | –
NC(=O)[C@H](Cc1ccccc1)NC(=O)[C@H](Cc1c[nH]c2ccccc12)NC(=O)[C@@H]1CCCN1C(=O)[C@@H](N)Cc1ccc(O)cc1 [Endomorphin 1] | 9.1% | –
CC1=CC(=O)[C@@H](O)[C@]2(C)[C@H]3[C@@H](O)[C@H](O)[C@]4(CO)OC[C@@]35[C@@H](C[C@@H]12)OC(=O)[C@H](O)[C@]54O [Yadanziolide A] | 15.8% | –
COc1c(O)cc2c3c1-c1ccccc1C[C@H]3N(C)CC2 [O-Nornuciferine] | 18.9% | –
COC1=CC(=O)O[C@@H](/C=C/c2ccccc2)C1 [(+)-Kavain] | – | 9.8
COc1cc(OC)c(OC)cc1C=O [Asaraldehyde] | 16.7% | –
C=Cc1cc(O)cc2ccc3c(C)c(O)ccc3c12 [Dehydroeffusol] | 44.2% | –
COC1=CC(=O)O[C@@H](/C=C/c2ccccc2)C1 [Kavain] | – | 39.7
COC[C@]12CN(C)C3[C@@H]4[C@H](OC)[C@H]1[C@@]3([C@@H](OC)C[C@H]2O)[C@@H]1C[C@@]2(O)[C@H](OC(=O)c3ccccc3)[C@@H]1[C@]4(O)[C@@H](O)[C@@H]2OC [Benzoylmesaconine] | 10.7% | –
CC(=O)/C=C/c1ccccc1 [Benzylideneacetone] | – | 20.1
CC(C)[C@@H]1[C@H]2OC(=O)[C@@H]1[C@@H]1CC[C@@H]3CN(C)[C@H]2[C@@]31C [Dendrobine] | 0% | –
CC(C)(C)[C@]1(O)C[C@@H]2OC(=O)C[C@@]23C(=O)O[C@@H]2OC(=O)[C@H](O)[C@]213 [Bilobalide] | 54.8% | –
C[C@H](O)c1ccccc1 [(S)-(-)-Phenylethanol] | 8.9 | –
COc1cc2c(cc1O)C[C@@H]1NCCc3cc(O)c(OC)c-2c31 [Laurolitsine (hydrochloride)] | 13.8% | –
CN1[C@@H]2CC[C@H]1CC(O)C2 (some centres unmarked) [Tropine] | 8.6% | –
NC(=O)Cc1ccccc1 [2-Phenylacetamide] | 20.1% | –
CCCCOC(=O)c1ccccc1C(=O)OCC(C)C [Butyl isobutyl phthalate] | 7.7% | –
CCN1C[C@]2(COC)[C@H](O)C[C@H](OC)[C@@]34[C@@H]5C[C@@]6(O)[C@H](OC(=O)c7ccccc7)[C@@H]5[C@@](O)([C@@H]([C@H](OC)[C@H]23)[C@@H]14)[C@@H](O)[C@@H]6OC [Benzoylaconine] | 0% | –
CCCCCc1cc(O)cc(O)c1 [Olivetol] | 12.2% | –
CCN1C[C@]2(COC)[C@H](O)C[C@H](OC)[C@]34C1[C@H]([C@H](OC)[C@H]23)[C@]1(O)[C@H]2[C@@H](O)[C@](O)(C[C@H]24)[C@@H](OC)[C@@H]1O [Aconine] | 36% | –
O=C1C=CC(=O)c2c(O)ccc(O)c21 [Naphthazarin] | 5.6% | –
COC(=O)[C@]12OC[C@]34[C@H]([C@@H](O)[C@@H]1O)[C@@]1(C)CC(=O)C(O)=C(C)[C@@H]1C[C@H]3OC(=O)[C@H](OC(=O)/C=C(\C)C(C)(C)OC(C)=O)[C@@H]24 [Bruceantinol] | 0% | –
C[C@]12CC[C@H](O)C[C@H]1CC[C@@H]1[C@@H]2[C@H](O)C(=O)[C@]2(C)[C@@H](c3ccc(=O)oc3)CC[C@]12O [Arenobufagin] | 0% | –
C[C@H]1CC[C@@H]2N(C1)C[C@H]1[C@@H]3C[C@H]4[C@@H](C[C@H](O)[C@H]5C[C@@H](O)CC[C@@]54C)[C@@H]3CC[C@@H]1[C@]2(C)O [Peimine] | 26.7% | –

SMILES | 229E Inhibition rate (24 h, 10 µM; inhibitor) | 229E Inhibition rate (24 h, 10 µM, inhibitor) [%]
COC[C@]12CN(C)[C@@H]3[C@@H]4[C@H](OC)[C@H]1[C@@]3([C@@H](OC)C[C@H]2O)[C@@H]1C[C@@]2(O)[C@H](OC(=O)c3ccccc3)[C@@H]1[C@]4(OC(C)=O)[C@@H](O)[C@@H]2OC [Mesaconitine] | 6.2% | –
CCCCC/C=C/C/C=C/CCCCCCCC(=O)O[C@H](COC(=O)CCCCCCCCCCCCCCC)COP(=O)([O-])OCC[N+](C)(C)C [Lecithin] | 5.1 | –
CO[C@@H]1C[C@H](O[C@H]2CC[C@@]3(C)[C@H](CC[C@@]45O[C@@]46CC[C@H](C4=CC(=O)OC4)[C@@]6(C)CC[C@H]35)C2)O[C@H](C)[C@@H]1O [Adynerin] | 9.5% | –
O=C(O)CC[N+](=O)[O-] [3-Nitropropanoic acid] | 36.6% | –
COC(=O)C[C@](O)(CCC(C)(C)O)C(=O)O[C@@H]1C(OC)=C[C@]23CCCN2CCc2cc4c(cc2[C@H]13)OCO4 [Harringtonine] | 14.4% | –
O=[N+]([O-])c1ncc[nH]1 [Azomycin] | 0% | –
CCN1C[C@]2(COC)CC[C@H](OC)[C@]34C1[C@H]([C@H](OC)[C@H]23)[C@@]1(OC(C)=O)C[C@H](OC)[C@@]2(O)C[C@@H]4[C@@H]1[C@H]2OC(=O)c1ccc(OC)cc1 [Crassicauline A] | 19.4% | –
COc1cc([C@@H]2c3cc4c(cc3C(=O)[C@H]3COC(=O)[C@H]23)OCO4)cc(OC)c1OC [Podophyllotoxone] | 10.4% | –
C=C1C/C(=C/C)C(=O)O[C@@H]2CCN3CC=C(COC(=O)[C@]1(C)O)[C@H]23 [Seneciphylline] | 7.3 | –
O=C(C[C@@H]1NCCC[C@H]1O)Cn1cnc2ccccc2c1=O [Febrifugine] | 27.1% | –
COC[C@@]12CC[C@H](OC)[C@]34C([C@H]([C@H](OC)[C@H]13)[C@]1(O)[C@H]3[C@@H](OC(=O)c5ccccc5)[C@](O)(C[C@H]34)[C@@H](OC)[C@@H]1O)N(C)C2 [Benzoylhypaconine] | 7.7% | –
COc1cc2c(cc1OC)[C@@H]1C(=O)c3ccc4c(c3O[C@@H]1CO2)CC(C(C)C)O4 (some centres unmarked) [Dihydrorotenone] | 6.6% | –
CC(=O)OC(C)(C)/C=C/C(=O)[C@](C)(O)[C@H]1[C@H](O)C[C@@]2(C)[C@@H]3CC=C4[C@@H](C=C(O)C(=O)C4(C)C)[C@]3(C)C(=O)C[C@]12C [Cucurbitacin E] | 3.5% | –
COc1cc2c(cc1OC)[C@@H]1C(=O)c3ccc4c(c3O[C@@H]1CO2)C=CC(C)(C)O4 [Deguelin] | 1.3 | –
C[C@H]1CC[C@@H]2N(C1)C[C@H]1[C@@H]3C[C@H]4[C@@H](C[C@@H](O)[C@H]5C[C@@H](O)CC[C@@]54C)[C@@H]3CC[C@@H]1[C@]2(C)O [Isoverticine] | 12.2% | –
C[C@]12CC[C@H](O)C[C@H]1CC[C@@H]1[C@@H]2CC[C@]2(C)[C@@H](c3ccc(=O)oc3)C[C@H]3O[C@]132 [Resibufogenin] | 14.5% | –
CC(C)(O)[C@@H]1[C@H]2OC(=O)[C@@H]1[C@]1(O)C[C@H]3O[C@]34C(=O)O[C@H]2[C@]14C [Picrotin] | 42.9% | –
CC(C)(O)/C=C/C(=O)[C@](C)(O)[C@H]1[C@H](O)C[C@@]2(C)[C@@H]3CC=C4[C@@H](C[C@H](O)C(=O)C4(C)C)[C@]3(C)C(=O)C[C@]12C [Cucurbitacin D] | 17.2% | –
CCN1C[C@]2(COC)CC[C@H](O)[C@]34C1[C@@](O)([C@@H](OC)[C@H]23)[C@@]1(O)C[C@H](OC)[C@H]2C[C@@H]4[C@@H]1[C@H]2OC [Delsoline] | 8.5% | –
COC1c2c(ccc3c2OCO3)-c2ccc3cc4c(cc3c2N1C)OCO4 (centres unmarked) [6-Methoxydihydrosanguinarine] | 4.4% | –
CO[C@H]1C[C@H](O[C@H]2CC[C@]3(C)[C@H]4CC[C@]5(C)[C@@H](C6=CC(=O)OC6)CC[C@]5(O)[C@@H]4CC[C@]3(O)C2)O[C@H](C)[C@H]1O[C@@H]1O[C@H](CO)[C@@H](O)[C@H](O)[C@H]1O [Periplocin] | 25 | –
COc1cc2ccc(=O)oc2c2ccoc12 [Sphondin] | 14.9% | –
COc1ccccc1OC [1,2-Dimethoxybenzene] | 40.8% | –
CCC1CCC(=O)O1 (centres unmarked) [γ-Hexalactone] | 0% | –
COc1cc(C=O)cc(OC)c1OC [3,4,5-Trimethoxybenzaldehyde] | 11.1% | –

SMILES | 229E Inhibition rate (24 h, 10 µM; inhibitor) | 229E Inhibition rate (24 h, 10 µM, inhibitor) [%]
CC(C)(O)[C@H]1O[C@H]2CC[C@@]3(C)[C@@](O)(CC[C@H]4Cc5c([nH]c6ccccc56)[C@@]43C)C2=CC1=O [Paxilline] | 0% | –
CCOC1c2c(ccc3c2OCO3)-c2ccc3cc4c(cc3c2N1C)OCO4 (centres unmarked) [Ethoxysanguinarine] | 2.8% | –
C/C(=C\c1csc(C)n1)[C@@H]1C[C@@H]2O[C@@H]2CCC[C@H](C)[C@H](O)[C@@H](C)C(=O)C(C)(C)[C@@H](O)CC(=O)O1 [Epothilone A] | 33.8% | –
CNC[C@H](N)C(=O)O [β-N-methylamino-L-alanine (hydrochloride)] | 11.1% | –
O=C1C=CC[C@@H]2[C@H]3CCC[N+]4([O-])CCC[C@@H](CN12)[C@@H]34 (some centres unmarked) [Oxysophocarpine] | 11.6% | –
CC1(C)[C@H]2O[C@H]2[C@H]2[C@](C)(O)[C@@H]3CC[C@@H]4[C@@H](O)[C@@]3(C[C@@H](O)[C@@]21O)C[C@@]4(C)O [Rhodojaponin III] | 46.8% | –
COC[C@@]12CC[C@H](OC)[C@@]34[C@@H]5C[C@@]6(O)[C@H](OC(=O)c7ccccc7)[C@@H]5[C@@](OC(C)=O)([C@@H]([C@H](OC)[C@H]13)[C@H]4N(C)C2)[C@@H](O)[C@@H]6OC [Hypaconitine] | 42.3% | –
CC(C)=CCC[C@@](C)(O)[C@H]1CC[C@]2(C)[C@@H]1[C@H](O)C[C@@H]1[C@@]3(C)CC[C@H](O[C@@H]4O[C@H](CO)[C@@H](O)[C@H](O)[C@H]4O)C(C)(C)[C@@H]3CC[C@]12C [20(R)-Ginsenoside Rh2] | 3.7% | –
CC(=O)O[C@H]1C[C@]2(O)[C@@H]3CC[C@@H]4C[C@@H](O)CC[C@]4(C)[C@H]3CC[C@]2(C)[C@H]1c1ccc(=O)oc1 [Bufotalin] | 18.6% | –
C[C@]12CC[C@H](O)C[C@@]1(O)CC[C@@H]1[C@@H]2CC[C@]2(C)[C@@H](c3ccc(=O)oc3)CC[C@]12O [Telocinobufagin] | 16.1 | –
N#CCc1ccc(O)cc1 [4-Hydroxybenzyl cyanide] | 7.1 | –
CC(C)=CCC[C@](C)(O)[C@H]1CC[C@]2(C)[C@@H]1[C@H](O)C[C@@H]1[C@@]3(C)CC[C@H](O[C@@H]4O[C@H](CO)[C@@H](O)[C@H](O)[C@H]4O)C(C)(C)[C@@H]3CC[C@]12C [Ginsenoside Rh2] | 4.7% | –
CCN1C[C@]2(C)CC[C@H](O)[C@]34C1[C@@H](C[C@H]23)[C@@]1(O)C[C@H](OC)[C@H]2C[C@@H]4[C@@H]1[C@H]2O [Karacoline] | 19.2% | –
CC1=C2C[C@H]3[C@@H](CC(=O)[C@H]4C[C@@H](O)CC[C@@]43C)[C@@H]2CC[C@]12O[C@@H]1C[C@H](C)CN[C@H]1[C@H]2C [Peimisine] | 10.9% | –
C=C1[C@H](OC(C)=O)[C@@H](OC(=O)c2ccccc2)[C@@H](OC(C)=O)C(C)(C)[C@H]2O[C@](O)([C@H](C)C2=O)[C@@]2(OC(C)=O)C[C@H](C)[C@H](OC(C)=O)[C@@H]2[C@H]1OC(C)=O [Kansuinine A] | 17.5% | –
CC(C)=CCC[C@@](C)(O)[C@H]1CC[C@]2(C)[C@@H]1[C@H](O)C[C@@H]1[C@@]3(C)CC[C@H](O)C(C)(C)[C@@H]3[C@@H](O[C@@H]3O[C@H](CO)[C@@H](O)[C@H](O)[C@H]3O)C[C@]12C [(20R)-Ginsenoside Rh1] | 30.3% | –
C[S+](CC[C@H](N)C(=O)[O-])C[C@H]1O[C@@H](n2cnc3c(N)ncnc32)[C@H](O)[C@@H]1O (stereo partly drawn) [S-Adenosyl-L-methionine (disulfate tosylate)] | 18.3% | –
C/C=C/C#CC#C/C=C/c1ccco1 [Atractylodin] | 10.3% | –
COc1cc2cc(c1Cl)N(C)C(=O)C[C@H](OC(=O)C(C)C)[C@]1(C)O[C@@H]1[C@H](C)[C@@H]1C[C@@](O)(NC(=O)O1)[C@H](OC)/C=C/C=C(\C)C2 [Ansamitocin P-3] | 22.8% | –
CN1[C@@H](CC(=O)c2ccccc2)CCC[C@H]1CC(=O)c1ccccc1 [Lobelanine] | 19.2% | –
CN1Cc2c(ccc3c2OCO3)[C@@H]2[C@H]1c1cc3c(cc1C[C@@H]2O)OCO3 [Chelidonine] | 12.4% | –
C[C@H](CCC(=O)O)C[C@H](C)C[C@H](C)C(=O)/C=C(\O)[C@H](C)C[C@H](C)C/C=C/[C@@H](C)[C@@H](O)[C@@H](C)[C@@H](O)C[C@@H]1CC[C@@](C)([C@H]2CC[C@@](C)([C@@H](C)O)O2)O1 [Ionomycin (calcium)] | 0% | –
CC(C)[C@]12CC(=O)[C@H](C)[C@H]1C2 [α-Thujone] | 13.6% | –
O=C1C([C@@H]2O[C@H](CO)[C@@H](O)[C@H](O)[C@H]2O)=C(O)/C(=C(O)/C=C/c2ccc(O)cc2)C(=O)C1(O)[C@@H]1O[C@H](CO)[C@@H](O)[C@H](O)[C@H]1O (some centres unmarked) [Hydroxysafflor yellow A] | 0% | –
